# Test results taken from the supplement of paper PMC8551327.
# Counter-ions that a name gives are not always drawn. Some of the results follow. Cut-off read from the data, not from the text of the source: active = 1.25 or more and inactive = the rest. Most values come without repeats; read them as rough.
# Test system: Kcc2-LUC knock-in mouse primary cortical neurons (Kcc2 promoter reporter)
# Test: Kcc2 promoter-driven luciferase activity relative to vehicle control (fold of vehicle (ratio)); higher = stronger Kcc2 promoter activation (Kcc2 expression enhancer)
# Conditions: 100 nM; 48 h
row,SMILES,Kcc2 promoter-driven luciferase activity
1,C1CN1c1nc(N2CC2)nc(N2CC2)n1 [Triethylenemelamine],inactive: 0.79
2,CC1=CC23C(COC(=O)C24CO4)C(C(=O)O)=CC3C1C (centres undefined) [Pentalenolactone],inactive: 0.45
3,O=C1OC(c2ccccc2)=N/C1=C\c1ccc(N(CCCl)CCCl)cc1,inactive: 0.88
4,CC(=O)O[C@@H]1[C@@H](O)C2=C3[C@]4(C)[C@@H]1C(C)(C)C(=O)C[C@@H]4[C@]3(O)[C@H](OC(C)=O)[C@@]1(C[C@@H]1C)C2=O [Photobarbatusin I],inactive: 0.963
5,CC1CCC2(O)C3(C)CC4(O)OC2(C1O)C1(O)C3(O)C(OC(=O)c2ccc[nH]2)C(O)(C(C)C)C41C (centres undefined) [Ryanodine],inactive: 1.02
6,CO[C@H]1C[C@H](O[C@H]2CC[C@]3(C=O)[C@H]4CC[C@]5(C)[C@@H](C6=CC(=O)OC6)CC[C@]5(O)[C@@H]4CC[C@]3(O)C2)O[C@H](C)[C@H]1O [Cymarin],active: 1.26
7,C[C@H]1CCC/C=C/[C@@H]2C[C@H](O)C[C@H]2[C@H](O)/C=C/C(=O)O1 [Brefeldin A; Ascotoxin],inactive: 0.6
8,N#CC(NCc1cccc(CNC(C#N)c2ccccc2)c1)c1ccccc1 (centres undefined),inactive: 0.97
9,"O=C([O][Hg][CH2]C1COC([CH2][Hg][O]C(=O)c2ccccc2)CO1)c1ccccc1 (centres undefined) [P-Dioxane,5-bis[(benzoyloxymercuri)methyl]-]",inactive: 0.92
10,COc1ccn(C)c(=O)c1C#N [Ricinine],inactive: 0.56
11,C/C=C(/C)C(=O)O[C@H]1CC[C@@]2(C)[C@@H]3CC[C@H]4[C@]5(O)C[C@H](O)[C@@]6(O)[C@@H](CN7C[C@@H](C)CC[C@H]7[C@@]6(C)O)[C@]5(O)C[C@]42O[C@]13O [Veratrine Hemisulfate],active: 1.3
12,CC[C@H]1CN2CCc3cc(OC)c(OC)cc3[C@@H]2C[C@@H]1C[C@H]1NCCc2cc(O)c(OC)cc21 [Cephaelinehydrochloride],inactive: 1.05
13,COc1cc2c(c3oc4cccc(O)c4c(=O)c13)[C@@H]1C=CO[C@@H]1O2 [Sterigmatocystin],inactive: 1.02
14,CC(C)OP(=O)(OC(C)C)C(N(C)C)P(=O)(OC(C)C)OC(C)C.[Cl][Sn]([Cl])([Cl])[c]1ccccc1,inactive: 0.98
15,CO[C@@H](/C(C)=C/C=C/C(C)=C/c1coc(C)n1)[C@@H](C)[C@@H]1C[C@H](O)[C@@]2(C)O[C@@H]2/C=C/[C@@H](C)[C@H]2C[C@H](CC(=O)O2)C[C@@H]2O[C@H]2C(=O)O1 [Rhizoxin],inactive: 0.54
16,COC1CC(OC2CCC3(C=O)C4CCC5(C)C(C6=CC(=O)OC6)CCC5(O)C4CCC3(O)C2)OC(C)C1OC1OC(CO)C(O)C(O)C1O (centres undefined) [Strophanthin K],inactive: 1.18
17,CC12CCC3C(CCC4CC(OC(=O)Cc5ccc(N(CCCl)CCCl)cc5)CCC43C)C1CCC(=O)N2 (centres undefined),inactive: 1
18,CC[C@@]12CCCN3CC[C@]4(c5cccc(OC)c5N(C(C)=O)[C@@H]4CC1)[C@H]32 [Aspidospermine],inactive: 0.755
19,COc1ccc2c(c1O)-c1c(OC)c(OC)cc3c1[C@H](C2)N(C)CC3 [Luteanine],inactive: 1.23
20,O=[N+]([O-])[O-].O=[N+]([O-])[O-].O=[N+]([O-])[O-].[Ga+3] [gallium;nitric acid],inactive: 1.06

row,SMILES,Kcc2 promoter-driven luciferase activity
1,C1CCNCC1.S=C(S)N1CCCCC1 [Piperidine pentamethylenedithiocarbamate],active: 1.47
2,CCCCCn1cc2c3c(cccc31)C1C=C(C)CN(C)[C@@H]1C2.Cc1ccc(C(=O)OC(C(=O)O)C(OC(=O)c2ccc(C)cc2)C(=O)O)cc1 (centres undefined),inactive: 1.02
3,"NC1CCCCC1N.[Cl][Pt][Cl] (centres undefined) [Dichloro(1,2-diaminocyclohexane)platinum(II)]",inactive: 1.02
4,O=C1NC(=S)NC(=O)C1C(=O)Nc1ccccc1 [Merbarone],inactive: 0.53
5,CC(=O)OC1C(O)C(C)OC(OC2C(OC(=O)C3CCC4C(C3)OC3(CC(OC(=O)/C=C/c5ccccc5)C(C)CO3)C43CO3)OC(C)C(O)C2OC(C)=O)C1O (centres undefined),active: 1.25
6,O=C1N[C@@H]2C(=C[C@H](O)[C@@H](O)[C@H]2O)c2cc3c(c(O)c21)OCO3 [Narciclasine],inactive: 0.67
7,"CCC1/C=C/C=C/CC(C)C(O)C(C)(O)C(=O)C(C)C(O)C(C)C(=O)C(C)C(O)C(C)/C=C/C(=O)OC2C(C)C(CC1)OC1(CCC(C)C(CC(C)O)O1)C2C.CCC1/C=C/C=C/CC(C)C(O)C(C)(O)C(=O)C(C)C(O)C(C)C(=O)C(C)C(O)C(C)/C=C/C(=O)OC2C(C)C(CC1)OC1(OC(CC(C)O)C(C)CC1=O)C2C.CCC1/C=C/C=C/CC(C)C(O)C(C)C(=O)C(C)C(O)C(C)C(=O)C(C)C(O)C(C)/C=C/C(=O)OC2C(C)C(CC1)OC1(CCC(C)C(CC(C)O)O1)C2C (centres undefined) [Oligomycin A, B, and C]",inactive: 0.06
8,CC[C@H](C)[C@@H]1NC(=O)[C@@H](NC(=O)c2c3nc4c(C(=O)N[C@@H]5C(=O)N[C@@H](C(C)C)C(=O)N6CCC[C@H]6C(=O)N(C)CC(=O)N(C)[C@@H](C(C)C)C(=O)O[C@@H]5C)ccc(C)c4oc-3c(C)c(=O)c2N)[C@@H](C)OC(=O)[C@H](C(C)C)N(C)C(=O)CN(C)C(=O)[C@@H]2CCCN2C1=O,inactive: 1.01
9,COC1=C(C)C(=O)C2=C(C1=O)[C@@H](CO)N1[C@H]3[C@H]4[C@@H](C[C@H]([C@H]1C#N)N4C)[C@@H]1OCCN1[C@@H]23 [Cyanocycline A],inactive: 0.463
10,CC[C@@]1(O)C[C@H](O)c2c(O)c3c(c(O)c2[C@H]1C(=O)OC)C(=O)c1cccc(O)c1C3=O [epsilon.-Rhodomycinone],inactive: 0.95
11,Cc1cc2c(C(C)C)c(O)c(O)c(C=O)c2c(O)c1-c1c(C)cc2c(C(C)C)c(O)c(O)c(C=O)c2c1O [Gossypol],inactive: 0.99
12,C[N+](C)(C)CC1CCCC1=O (centres undefined) [trimethyl-[(2-oxocyclopentyl)methyl]azanium;iodide],inactive: 1.17
13,Fc1cccc(F)c1C1SCc2nc3ccccc3n21 (centres undefined) [Thiazolobenzimidazole],inactive: 0.8
14,C[C@@H]1O[C@@H](O[C@@H]2C=C3CC[C@@H]4[C@H](CC[C@]5(C)[C@@H](c6ccc(=O)oc6)CC[C@]45O)[C@@]3(C)CC2)[C@H](O)[C@H](O)[C@H]1O [Proscillaridin A],inactive: 0.824
15,COc1ccc(O)c2c(=O)c3c(OC)cc4c(c3oc12)[C@@H]1C=CO[C@@H]1O4 [5-Methoxysterigmatocystin],inactive: 0.88
16,CC(/C=N/N=C(N)N)=N\N=C(N)N [Methylglyoxal Bis(guanylhydrazone)],inactive: 1.05
17,"CC(C)(Br)C(=O)C(Br)Br [1,1,3-Tribromo-3-mthyl-2-butanone]",inactive: 0.87
18,C=C1C(=O)O[C@H]2C[C@@]3(C)O[C@@H]3CC/C(C)=C/[C@@H](OC(C)=O)[C@H]12 [Pyrethrosin],inactive: 0.58
19,COc1cc2c(c(OC)c1OC)-c1ccc(OC)c(=O)cc1[C@@H](NC(C)=O)CC2 [Colchicine],active: 1.57

# Sorted by number of heavy atoms (largest number first): part of the list above
row,SMILES,Kcc2 promoter-driven luciferase activity
8,CC[C@H](C)[C@@H]1NC(=O)[C@@H](NC(=O)c2c3nc4c(C(=O)N[C@@H]5C(=O)N[C@@H](C(C)C)C(=O)N6CCC[C@H]6C(=O)N(C)CC(=O)N(C)[C@@H](C(C)C)C(=O)O[C@@H]5C)ccc(C)c4oc-3c(C)c(=O)c2N)[C@@H](C)OC(=O)[C@H](C(C)C)N(C)C(=O)CN(C)C(=O)[C@@H]2CCCN2C1=O,inactive: 1.01
5,CC(=O)OC1C(O)C(C)OC(OC2C(OC(=O)C3CCC4C(C3)OC3(CC(OC(=O)/C=C/c5ccccc5)C(C)CO3)C43CO3)OC(C)C(O)C2OC(C)=O)C1O (centres undefined),active: 1.25
14,C[C@@H]1O[C@@H](O[C@@H]2C=C3CC[C@@H]4[C@H](CC[C@]5(C)[C@@H](c6ccc(=O)oc6)CC[C@]45O)[C@@]3(C)CC2)[C@H](O)[C@H](O)[C@H]1O [Proscillaridin A],inactive: 0.824
10,CC[C@@]1(O)C[C@H](O)c2c(O)c3c(c(O)c2[C@H]1C(=O)OC)C(=O)c1cccc(O)c1C3=O [epsilon.-Rhodomycinone],inactive: 0.95
19,COc1cc2c(c(OC)c1OC)-c1ccc(OC)c(=O)cc1[C@@H](NC(C)=O)CC2 [Colchicine],active: 1.57
15,COc1ccc(O)c2c(=O)c3c(OC)cc4c(c3oc12)[C@@H]1C=CO[C@@H]1O4 [5-Methoxysterigmatocystin],inactive: 0.88
18,C=C1C(=O)O[C@H]2C[C@@]3(C)O[C@@H]3CC/C(C)=C/[C@@H](OC(C)=O)[C@H]12 [Pyrethrosin],inactive: 0.58
13,Fc1cccc(F)c1C1SCc2nc3ccccc3n21 (centres undefined) [Thiazolobenzimidazole],inactive: 0.8
4,O=C1NC(=S)NC(=O)C1C(=O)Nc1ccccc1 [Merbarone],inactive: 0.53
16,CC(/C=N/N=C(N)N)=N\N=C(N)N [Methylglyoxal Bis(guanylhydrazone)],inactive: 1.05
12,C[N+](C)(C)CC1CCCC1=O (centres undefined) [trimethyl-[(2-oxocyclopentyl)methyl]azanium;iodide],inactive: 1.17
17,"CC(C)(Br)C(=O)C(Br)Br [1,1,3-Tribromo-3-mthyl-2-butanone]",inactive: 0.87
